Taken from: PubChem BioAssay AID1224828 (NIAID, 2016)
Aim: 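Find genes required for NF-kappaB p65 moving into the nucleus after LPS in mouse macrophages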 (primary screen). Cells: mouse RAW264.7 G9 macrophage reporter cells (GFP-p65, Tnf promoter-mCherry). Reagents: siRNA pool against mouse genes, 100 nM. Time to read-out: 2 days siRNA transfection, then 40 min LPS before fixation. Treatment: LPS (Salmonella minnesota R595) at 10 ng/ml. Detection: 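Microscopy ratio of nuclear to perinuclear-ring GFP-p65 signal, scaled to the plate median; gene score is the average of two replicate robust z-scores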. Direction: p65 translocation robust z-score: higher = more nuclear NF-kappaB p65 after LPS than the plate median; nuclear/cytoplasmic p65 ratio: higher = more nuclear NF-kappaB p65. Active means: 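Active if robust z is above 3.3 (negative regulators) or below -1.56, the Tlr4 control median (positive regulators); activity score 50 or more; control wells not called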. Meaning of the calls: active = hit (p65 shift raised or lowered); inactive = no clear change.
This is one part, drawn at random, of about 17,000 reagents. In the full data, 762 (4.5%) were called active. 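Active calls include both raised and lowered p65 entry, mostly lowered; wells with fewer than 50 cells lack a z-score.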 Raw values are not corrected between plates.

| Target gene | p65 translocation robust z-score | nuclear/cytoplasmic p65 ratio, rep 1 | nuclear/cytoplasmic p65 ratio, rep 2 | low cell count flag | outcome |
| --- | --- | --- | --- | --- | --- |
| Elf2 (E74-like factor 2) | -0.76 | 1.36 | 1.27 | enough cells to score | inactive |
| Or2r3 (olfactory receptor family 2 subfamily R member 3) | 0.7 | 1.41 | 1.35 | enough cells to score | inactive |
| Dpp7 (dipeptidylpeptidase 7) | – | 1.37 | 1.33 | fewer than 50 cells per well; well left out of scoring | inactive |
| Zfp446 (zinc finger protein 446) | 0.04 | 1.27 | 1.65 | enough cells to score | inactive |
| Tm9sf4 (transmembrane 9 superfamily member 4) | – | 1.58 | 1.33 | fewer than 50 cells per well; well left out of scoring | inactive |
| Rdh13 (retinol dehydrogenase 13 (all-trans and 9-cis)) | -0.09 | 1.35 | 1.26 | enough cells to score | inactive |
| Dnajb12 (DnaJ heat shock protein family (Hsp40) member B12) | 1.27 | 1.45 | 1.69 | enough cells to score | inactive |
| Plxna1 (plexin A1) | – | 1.62 | 1.2 | fewer than 50 cells per well; well left out of scoring | inactive |
| Maged2 (MAGE family member D2) | 1 | 1.81 | 1.75 | enough cells to score | inactive |
| Eid2 (EP300 interacting inhibitor of differentiation 2) | 0.8 | 1.97 | 1.6 | enough cells to score | inactive |
| Cnnm2 (cyclin M2) | -1.31 | 1.53 | 1.21 | enough cells to score | inactive |
| Cnst (consortin, connexin sorting protein) | – | 1.6 | 1.69 | fewer than 50 cells per well; well left out of scoring | inactive |
| Pdcd11 (programmed cell death 11) | – | 1.12 | 1.01 | fewer than 50 cells per well; well left out of scoring | inactive |
| Avil (advillin) | 1.81 | 1.47 | 1.84 | enough cells to score | inactive |
| Flt1 (FMS-like tyrosine kinase 1) | 0.37 | 1.74 | 1.44 | enough cells to score | inactive |

Part of the list above, set out differently:
{"Target gene":"Avil (advillin)","p65 translocation robust z-score":1.81,"nuclear/cytoplasmic p65 ratio, rep 1":1.47,"nuclear/cytoplasmic p65 ratio, rep 2":1.84,"low cell count flag":"enough cells to score","outcome":"inactive"}
{"Target gene":"Flt1 (FMS-like tyrosine kinase 1)","p65 translocation robust z-score":0.37,"nuclear/cytoplasmic p65 ratio, rep 1":1.74,"nuclear/cytoplasmic p65 ratio, rep 2":1.44,"low cell count flag":"enough cells to score","outcome":"inactive"}

The list goes on:
| Target gene | p65 translocation robust z-score | nuclear/cytoplasmic p65 ratio, rep 1 | nuclear/cytoplasmic p65 ratio, rep 2 | low cell count flag | outcome |
| --- | --- | --- | --- | --- | --- |
| Vgll2 (vestigial like family member 2) | -0.86 | 1.24 | 1.16 | enough cells to score | inactive |
| Or8c13 (olfactory receptor family 8 subfamily C member 13) | 0.86 | 1.6 | 1.37 | enough cells to score | inactive |
| Or51f5 (olfactory receptor family 51 subfamily F member 5) | -1.74 | 1.21 | 1.04 | enough cells to score | active |
| Rdx (radixin) | -0.08 | 1.49 | 1.52 | enough cells to score | inactive |
| Cd200r2 (Cd200 receptor 2) | 1.22 | 1.93 | 1.69 | enough cells to score | inactive |
| Rab39a (RAB39A, member RAS oncogene family) | 0.03 | 1.23 | 1.22 | enough cells to score | inactive |
| Dcbld1 (discoidin, CUB and LCCL domain containing 1) | -0.46 | 1.46 | 1.52 | enough cells to score | inactive |
| Ppp1r12b (protein phosphatase 1, regulatory subunit 12B) | 0.57 | 1.51 | 1.89 | enough cells to score | inactive |
| Ikzf5 (IKAROS family zinc finger 5) | 0.5 | 1.55 | 1.25 | enough cells to score | inactive |
